Results published in patent publication WO2021090922A1.
No constants are given. Whether binding was seen depends on the method and setting. Some binding calls cover weakened binding; strength is not graded here.

By UniProt entry, the sequences of proteins in these tests, tags left out. Residues count along the entry.
UniProt P04114, residues 28-4563: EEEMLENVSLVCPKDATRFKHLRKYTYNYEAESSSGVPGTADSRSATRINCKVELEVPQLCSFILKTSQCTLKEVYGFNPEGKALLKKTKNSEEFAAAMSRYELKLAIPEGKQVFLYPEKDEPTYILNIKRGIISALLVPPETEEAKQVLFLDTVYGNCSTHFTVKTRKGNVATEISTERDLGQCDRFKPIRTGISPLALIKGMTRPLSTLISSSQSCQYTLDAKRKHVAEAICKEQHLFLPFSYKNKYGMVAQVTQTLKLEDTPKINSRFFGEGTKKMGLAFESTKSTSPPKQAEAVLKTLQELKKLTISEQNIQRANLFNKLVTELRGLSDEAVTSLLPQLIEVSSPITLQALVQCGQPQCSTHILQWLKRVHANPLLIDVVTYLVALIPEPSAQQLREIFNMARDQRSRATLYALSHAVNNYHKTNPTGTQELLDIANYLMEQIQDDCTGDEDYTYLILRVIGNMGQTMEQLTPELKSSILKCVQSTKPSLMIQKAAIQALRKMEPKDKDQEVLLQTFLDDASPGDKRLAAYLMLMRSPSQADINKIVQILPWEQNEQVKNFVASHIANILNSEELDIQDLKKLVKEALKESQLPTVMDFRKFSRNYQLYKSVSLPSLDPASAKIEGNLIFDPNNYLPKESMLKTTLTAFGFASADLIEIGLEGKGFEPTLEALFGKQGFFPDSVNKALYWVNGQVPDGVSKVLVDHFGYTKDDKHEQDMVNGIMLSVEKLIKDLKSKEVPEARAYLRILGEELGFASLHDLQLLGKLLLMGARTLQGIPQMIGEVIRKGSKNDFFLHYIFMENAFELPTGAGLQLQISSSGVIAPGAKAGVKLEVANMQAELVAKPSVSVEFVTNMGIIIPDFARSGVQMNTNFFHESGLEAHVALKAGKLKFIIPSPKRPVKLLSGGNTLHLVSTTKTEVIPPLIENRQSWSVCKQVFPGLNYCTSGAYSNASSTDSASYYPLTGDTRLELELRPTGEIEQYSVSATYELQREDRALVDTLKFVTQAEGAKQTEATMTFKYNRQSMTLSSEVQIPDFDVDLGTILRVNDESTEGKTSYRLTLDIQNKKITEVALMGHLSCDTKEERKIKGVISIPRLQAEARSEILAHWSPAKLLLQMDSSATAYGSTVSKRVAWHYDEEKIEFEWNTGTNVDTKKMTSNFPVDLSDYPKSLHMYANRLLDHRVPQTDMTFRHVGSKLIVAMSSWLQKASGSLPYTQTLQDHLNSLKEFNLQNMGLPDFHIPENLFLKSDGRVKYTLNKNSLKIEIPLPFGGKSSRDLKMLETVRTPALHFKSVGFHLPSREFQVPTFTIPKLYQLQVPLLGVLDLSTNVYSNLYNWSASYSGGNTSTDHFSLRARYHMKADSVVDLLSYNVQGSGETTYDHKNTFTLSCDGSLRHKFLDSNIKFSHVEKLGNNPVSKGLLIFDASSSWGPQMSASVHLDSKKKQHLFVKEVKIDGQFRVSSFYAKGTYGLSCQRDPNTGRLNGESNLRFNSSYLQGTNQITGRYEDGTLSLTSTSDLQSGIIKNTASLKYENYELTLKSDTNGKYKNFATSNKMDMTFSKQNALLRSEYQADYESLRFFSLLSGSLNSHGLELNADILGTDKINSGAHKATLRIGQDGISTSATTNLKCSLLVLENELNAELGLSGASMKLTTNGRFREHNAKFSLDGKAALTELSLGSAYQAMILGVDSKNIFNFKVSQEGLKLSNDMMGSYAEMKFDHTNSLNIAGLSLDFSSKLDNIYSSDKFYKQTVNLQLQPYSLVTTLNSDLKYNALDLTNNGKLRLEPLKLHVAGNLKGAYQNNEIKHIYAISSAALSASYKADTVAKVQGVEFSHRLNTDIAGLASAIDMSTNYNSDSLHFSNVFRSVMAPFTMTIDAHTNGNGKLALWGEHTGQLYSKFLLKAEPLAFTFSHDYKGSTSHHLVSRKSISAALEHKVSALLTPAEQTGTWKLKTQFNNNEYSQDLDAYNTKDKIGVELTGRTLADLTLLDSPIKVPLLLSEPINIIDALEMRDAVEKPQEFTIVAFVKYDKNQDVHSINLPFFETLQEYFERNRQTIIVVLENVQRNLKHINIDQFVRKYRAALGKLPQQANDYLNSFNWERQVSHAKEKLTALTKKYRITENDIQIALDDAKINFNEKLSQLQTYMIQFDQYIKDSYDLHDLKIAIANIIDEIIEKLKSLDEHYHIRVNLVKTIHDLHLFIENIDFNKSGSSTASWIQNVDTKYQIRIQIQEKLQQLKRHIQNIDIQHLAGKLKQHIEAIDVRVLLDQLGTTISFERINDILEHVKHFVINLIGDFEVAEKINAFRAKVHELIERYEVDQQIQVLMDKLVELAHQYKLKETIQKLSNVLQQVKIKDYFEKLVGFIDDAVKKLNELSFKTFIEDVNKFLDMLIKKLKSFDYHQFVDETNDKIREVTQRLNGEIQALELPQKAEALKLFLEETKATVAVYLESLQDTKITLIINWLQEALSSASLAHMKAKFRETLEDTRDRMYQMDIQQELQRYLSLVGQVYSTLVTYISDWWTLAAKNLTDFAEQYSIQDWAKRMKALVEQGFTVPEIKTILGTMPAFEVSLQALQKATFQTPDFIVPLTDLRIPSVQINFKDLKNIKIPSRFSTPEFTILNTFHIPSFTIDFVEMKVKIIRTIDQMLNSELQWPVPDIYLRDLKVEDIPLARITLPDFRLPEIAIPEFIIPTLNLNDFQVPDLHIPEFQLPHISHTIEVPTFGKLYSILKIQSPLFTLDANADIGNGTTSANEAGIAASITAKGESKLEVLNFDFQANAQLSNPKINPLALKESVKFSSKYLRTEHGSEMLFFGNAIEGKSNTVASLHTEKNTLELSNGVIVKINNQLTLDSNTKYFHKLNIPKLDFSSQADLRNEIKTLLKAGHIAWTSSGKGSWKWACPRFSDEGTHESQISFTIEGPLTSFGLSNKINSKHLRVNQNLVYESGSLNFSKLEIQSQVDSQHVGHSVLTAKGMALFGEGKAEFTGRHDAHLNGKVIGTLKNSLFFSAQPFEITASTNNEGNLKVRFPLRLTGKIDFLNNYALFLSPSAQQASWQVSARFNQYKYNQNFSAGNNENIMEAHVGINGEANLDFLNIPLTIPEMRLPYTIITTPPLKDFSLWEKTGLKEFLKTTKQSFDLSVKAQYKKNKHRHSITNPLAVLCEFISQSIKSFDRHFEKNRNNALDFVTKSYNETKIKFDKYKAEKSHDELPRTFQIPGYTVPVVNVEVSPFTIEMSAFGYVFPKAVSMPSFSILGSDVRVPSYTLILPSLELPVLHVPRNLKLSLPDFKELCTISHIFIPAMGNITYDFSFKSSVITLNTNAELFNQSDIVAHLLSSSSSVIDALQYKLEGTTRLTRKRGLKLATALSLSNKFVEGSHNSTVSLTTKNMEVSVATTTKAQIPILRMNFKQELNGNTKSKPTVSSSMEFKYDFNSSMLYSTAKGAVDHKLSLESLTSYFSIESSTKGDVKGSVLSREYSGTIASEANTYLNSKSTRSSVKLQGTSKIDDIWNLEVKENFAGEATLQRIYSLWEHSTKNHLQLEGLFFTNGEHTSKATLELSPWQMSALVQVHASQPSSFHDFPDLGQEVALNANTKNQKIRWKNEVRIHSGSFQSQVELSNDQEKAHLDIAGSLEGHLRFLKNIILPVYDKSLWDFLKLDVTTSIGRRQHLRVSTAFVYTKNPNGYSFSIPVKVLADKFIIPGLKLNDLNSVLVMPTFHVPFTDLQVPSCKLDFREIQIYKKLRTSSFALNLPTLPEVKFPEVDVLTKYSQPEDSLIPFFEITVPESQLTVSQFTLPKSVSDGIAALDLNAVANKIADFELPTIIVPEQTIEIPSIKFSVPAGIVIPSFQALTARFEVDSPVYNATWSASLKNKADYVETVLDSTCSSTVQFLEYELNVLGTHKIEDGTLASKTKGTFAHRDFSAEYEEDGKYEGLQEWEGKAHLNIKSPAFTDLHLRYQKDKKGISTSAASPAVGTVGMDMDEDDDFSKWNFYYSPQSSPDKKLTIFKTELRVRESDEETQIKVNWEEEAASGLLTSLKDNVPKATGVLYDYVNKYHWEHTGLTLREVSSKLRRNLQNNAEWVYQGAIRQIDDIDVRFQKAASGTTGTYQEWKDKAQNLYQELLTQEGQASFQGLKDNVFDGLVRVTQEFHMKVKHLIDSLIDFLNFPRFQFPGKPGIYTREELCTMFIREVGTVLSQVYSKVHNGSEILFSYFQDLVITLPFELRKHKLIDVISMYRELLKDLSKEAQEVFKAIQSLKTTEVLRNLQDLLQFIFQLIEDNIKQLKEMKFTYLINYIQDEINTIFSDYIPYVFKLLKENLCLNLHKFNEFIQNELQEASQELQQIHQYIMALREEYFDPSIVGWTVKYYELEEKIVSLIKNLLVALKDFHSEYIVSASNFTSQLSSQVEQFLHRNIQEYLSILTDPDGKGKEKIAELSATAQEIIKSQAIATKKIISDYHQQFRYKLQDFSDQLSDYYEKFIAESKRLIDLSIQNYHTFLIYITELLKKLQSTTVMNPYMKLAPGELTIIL

Tests used:
[1] = molecular target: oxidized LDL (UniProt P04114); test: lateral flow sandwich on sera of hyperlipidemic patients (oxidized LDL in serum); scFv test spot, QuartzDot-labeled CTLD14
[2] = molecular target: oxidized LDL (UniProt P04114); test: lateral flow (immunochromatography) sandwich: anti-LDL scFv on the test spot captures oxidized LDL bound to QuartzDot-labeled CTLD14
[3] = molecular target: oxidized LDL (UniProt P04114); test: lateral flow sandwich; oxidized LDL added to PBS with 0.5% BSA or to diluted serum; scFv test spot; Typhoon fluorescence
[4] = molecular target: oxidized LDL (UniProt P04114); test: lateral flow sandwich in whole blood; full strip with blood cell removal filter; scFv test spot at different concentrations

- binding [1]: binds
- binding [2]: binds
- binding [3]: binds
- binding [4]: binds
B1: anti-LDL single-chain antibody (scFv)
scFv: GAGTPVTAPLAGTIWKVLASEGQTVAAGEVLLILEAMKMETEIRAAQAGTVRGIAVKAGDAVAVGDTLMTLAMAQVQLQQSGPGLVKPSQTLSLTCAISGDSVSSRDAAWNWIRQSPSRGLEWLGRTYYRSEWYTDYAVSLESRLTVNPDTSRNQFSLQLNSVTPEDTAVYLCARGSSWGHAPAFFDYWGQGTLVTVSSGGGGSGGGGSGGGGSDIQMTQSPSSLSASVEDRVAITCRASQSVSTYVAWYQQKPGKAPKLLISQASSLENGVPSRFSGSGSGTDFTLTISSLQPEDFATYYCQQYTTYPYTFGQGTKLEIKR
